Step yield and isolated yield data for two substances are collected here from patent publication EP0360481 (dated 1990).

This series is described as follows: general procedure: solution-phase peptide synthesis; OSu active esters with NEM in DMF.

Boc-Glu(γ-OBzl)-Gly-Ser(Bzl)-Asp(OBzl)₂ registered a step yield (coupling step) of 90%.

The substance “Cbz-pGlu-Glu(γ-OBzl)-Gly-Ser(Bzl)-Asp(OBzl)₂” returned an isolated yield (whole synthesis, Total yield from A) of 33%.
